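Viability assay of Plasmodium falciparum sporozoites; the read-out is not stated. The concentration is filed as 10 mM, unlikely as a test dose, so the dose is not known. Direction is inferred from retests: higher values go with lower viability. Strong results were mostly tested again. About 34,000 compounds were tested under these conditions; 0.84% (about 280) showed 50% or more at least once.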

Results are given as percent effect.
The record does not define 0% and 100%; most values in the screen are far below 50% and negative numbers occur (in some assays of this library far below -100).
This is an unselected part of the compounds tested.
Two or more numbers in one place are separate tests of the same structure; such repeats can differ widely.

O=C(NCCCn1cccn1)C1(c2ccccc2)CCOCC1 read -24.22% and -31.22%. For Cc1nc2c(c(C)c1CC(=O)Nc1cccc(C#N)c1)c(=O)[nH]n2C the result was -8.786%. [H][C@]12CC[C@]([H])(CN(S(C)(=O)=O)C1)N(C/C=C/c1ccc(F)cc1)C2 gave -10.23%. With CC(NC(=O)N(C)CCOc1ccccc1F)c1nncn1C (centres unmarked) the screen gave 6.441%. With COc1ccc(C2CCCN2S(=O)(=O)N(C)CC(C)C)cc1 (centres unmarked) the screen gave 3.807%. Result for [H][C@@]12CC[C@@](O)(c3ccc(C)cn3)[C@]1([H])CN(Cc1ccncc1)C2 was 4.73%. Cc1nc(-c2ccc(Cl)s2)sc1C(=O)NCCCC(N)=O read -10.28%. Result for CCN(Cc1noc(C)n1)C(=O)CC1C(=O)NCCN1CC(C)(C)C (centres unmarked) was -11.76%.

CCc1nc(CN(C(C)=O)C2CCN(CCc3cccs3)C2)no1 (centres unmarked) read 1.623%. Cl.Cl.O=C1NC2(CCNCC2)CC1c1ccncc1 (centres unmarked) read 3.559%. CC(NC(=O)NCc1ccccn1)c1cccs1 (centres unmarked) gave 4.118%. With c1cnnc(N2CCCC(NCc3cccc4c3OCCCO4)C2)c1 (centres unmarked) the screen gave -2.898%. COCCN(Cc1cccnc1)S(=O)(=O)c1cc(C)ccc1F read -11.03%. O=C(c1ccco1)N1CCC2(CC1)CCN(c1ncccn1)CC2 gave -0.613%. CC(=O)N(C)Cc1ccccc1NCc1c(C)noc1C gave 0.1183%. With O=C(O)C(F)(F)F.[H][C@@]12COC[C@]1([H])[C@H](NC(=O)c1cccn1C)CN2CC1CC1 the screen gave 5.303%.

CCC(=O)N1Cc2nccn2CC(CN(C)Cc2cccnc2)C1.O=C(O)C(F)(F)F.O=C(O)C(F)(F)F (centres unmarked) gave -4.498%. With CN(Cc1cccc(C#N)c1)Cn1nc(C(C)(C)C)ccc1=O the screen gave 0.6519%. With Oc1nnc(-c2cccs2)c2sc(N3CCCC3)nc12 the screen gave -6.906% and -7.819%. O=C(c1sccc1Br)N(Cc1cccnc1)C1CC1 gave 13.9%. With CSCC[C@@H](CO)NC(=O)c1ccc2nc(NS(C)(=O)=O)sc2c1 the screen gave -8.883%. With CC(C)c1n[nH]c(C2CN(C(=O)CCCn3cccn3)CCO2)n1 (centres unmarked) the screen gave -1.344%. For O=C(O)C(F)(F)F.[H][C@@]12CN(CC)C[C@]1([H])[C@H](OC)CCN2C(=O)Cc1ccsc1 the result was -5.867%. Result for NC(=O)CN1CCCC(c2cncc(Nc3ncccn3)n2)C1 (centres unmarked) was -13.37% and 5.263% and -16.76%.

For COc1c(Br)cc(Br)cc1CNC(C)Cn1cccn1 (centres unmarked) the result was 3.434%. [H][C@@]12CCN(C(=O)COC)C[C@@]1([H])O[C@@H](c1nc(C)no1)C2 read 6.061%. CN(C)c1ccc(C(=O)N2CCCC(n3cccn3)C2)nn1 (centres unmarked) gave -8.169%. O=C(NCCCn1cncn1)N1CCCC(N2CCCC2)C1 (centres unmarked) read 8.079%. For c1ccc(-c2nc(CNCCn3cccn3)cs2)nc1 the result was -50.49% and -1.184% and -36.14%. Result for CN1CCCC(c2ccc(N3CCOCC3)cn2)C1.Cl (centres unmarked) was 1.078%. For Cc1noc(CN2CCN(CC(C)O)CC2)n1 (centres unmarked) the result was -14.88%. For CC(C)Sc1nnc(CCNC(=O)OC(C)(C)C)o1 the result was 14.04%.

COCc1nc(CNC2CSCCSC2)no1 read -4.741%. C=C(C)COc1ccccc1CNC(CC)c1ccnn1C (centres unmarked) gave -3.947%. For O=C(O)C(F)(F)F.O=C(c1cccc(F)c1)N1CCC2(CC1)CN(c1ccccn1)CCO2 the result was 4.637%. For CN(CCC#N)C(=O)C(C)(C)Oc1ccc(C(N)=O)cc1 the result was -28.01%. For Cc1cc(C(=O)N2CCCC(n3nc(C)cc3C)C2)on1 (centres unmarked) the result was -11.15%. Cc1nc2ccccc2nc1CN1CCCC1c1c(C)nn(C)c1C (centres unmarked) read -17.9%. Result for O=C(O)C(F)(F)F.c1cnc(N2CCC3(CCCN(Cc4ccncc4)C3)CC2)nc1 was 9.631%. CC(C)CN1CCC(N2CCC(C(=O)N(C)C)CC2)CC1.O=C(O)C(F)(F)F.O=C(O)C(F)(F)F gave 6.079%.

[H][C@]12CN(CC(C)C)C(=O)[C@@]1([H])CN(c1cnccn1)C2 gave 10.82%.

The last 5 entries again:

compound,Percent Effect
Cc1cc(C(=O)N2CCCC(n3nc(C)cc3C)C2)on1 (centres unmarked),-11.15%
Cc1nc2ccccc2nc1CN1CCCC1c1c(C)nn(C)c1C (centres unmarked),-17.9%
O=C(O)C(F)(F)F.c1cnc(N2CCC3(CCCN(Cc4ccncc4)C3)CC2)nc1,9.631%
CC(C)CN1CCC(N2CCC(C(=O)N(C)C)CC2)CC1.O=C(O)C(F)(F)F.O=C(O)C(F)(F)F,6.079%
[H][C@]12CN(CC(C)C)C(=O)[C@@]1([H])CN(c1cnccn1)C2,10.82%

Source: ChEMBL document CHEMBL3988442, “University of Dundee, Small-Polar-MMV Screening Library” (2021).